Data: the supplement of paper PMC8728848
The other results are listed elsewhere or left out.

Legend:
Experiment in all cases: glycan array binding signal (z-score within array); higher = stronger binding
Details in all cases: glycan notation: IUPAC condensed, linker removed
[1] = molecular target: Gal(b1-4)GlcNAc(b1-3)Gal(b1-4)GlcNAc(b1-3)Gal(b1-4)GlcNAc(b1-2)[Gal(b1-4)GlcNAc(b1-3)Gal(b1-4)GlcNAc(b1-3)Gal(b1-4)GlcNAc(b1-6)]Man(a1-6)[Gal(b1-4)GlcNAc(b1-3)Gal(b1-4)GlcNAc(b1-3)Gal(b1-4)GlcNAc(b1-2)Man(a1-3)]Man(b1-4)GlcNAc(b1-4)[Fuc(a1-6)]GlcNAc
Method in brief: (§1)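 The Consortium for Functional Glycomics database supplied 3228 glycan arrays, of which those lacking an available protein sequence were dropped. The binding signal, a within-array Z-score, was averaged across arrays of the same protein sequence and across linkers. Negative scores can be read as non-binding.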

[2] = molecular target: Gal(b1-4)GlcNAc(b1-3)Gal(b1-4)GlcNAc(b1-3)Gal(b1-4)GlcNAc(b1-3)Gal(b1-4)GlcNAc(b1-2)Man(a1-3)[Gal(b1-4)GlcNAc(b1-3)Gal(b1-4)GlcNAc(b1-3)Gal(b1-4)GlcNAc(b1-3)Gal(b1-4)GlcNAc(b1-2)Man(a1-6)]Man(b1-4)GlcNAc(b1-4)GlcNAc
Method in brief: as §1

[3] = molecular target: Gal(b1-4)GlcNAc(b1-3)Gal(b1-4)GlcNAc(b1-3)Gal(b1-4)GlcNAc(b1-3)Gal(b1-4)GlcNAc(b1-2)Man(a1-3)[Gal(b1-4)GlcNAc(b1-3)Gal(b1-4)GlcNAc(b1-3)Gal(b1-4)GlcNAc(b1-3)Gal(b1-4)GlcNAc(b1-2)Man(a1-6)]Man(b1-4)GlcNAc(b1-4)[Fuc(a1-6)]GlcNAc
Method in brief: as §1

[4] = molecular target: Gal(b1-4)GlcNAc(b1-3)Gal(b1-4)GlcNAc(b1-3)Gal(b1-4)GlcNAc(b1-3)Gal(b1-4)GlcNAc(b1-2)[Gal(b1-4)GlcNAc(b1-3)Gal(b1-4)GlcNAc(b1-3)Gal(b1-4)GlcNAc(b1-3)Gal(b1-4)GlcNAc(b1-6)]Man(a1-6)[Gal(b1-4)GlcNAc(b1-3)Gal(b1-4)GlcNAc(b1-3)Gal(b1-4)GlcNAc(b1-3)Gal(b1-4)GlcNAc(b1-2)Man(a1-3)]Man(b1-4)GlcNAc(b1-4)[Fuc(a1-6)]GlcNAc
Method in brief: as §1

[5] = molecular target: Gal(b1-4)GlcNAc(b1-3)Gal(b1-4)GlcNAc(b1-3)Gal(b1-4)GlcNAc(b1-3)Gal(b1-4)GlcNAc(b1-3)Gal(b1-4)GlcNAc(b1-2)Man(a1-3)[Gal(b1-4)GlcNAc(b1-3)Gal(b1-4)GlcNAc(b1-3)Gal(b1-4)GlcNAc(b1-3)Gal(b1-4)GlcNAc(b1-3)Gal(b1-4)GlcNAc(b1-2)Man(a1-6)]Man(b1-4)GlcNAc(b1-4)GlcNAc
Method in brief: as §1

[6] = molecular target: Gal(b1-4)GlcNAc(b1-3)Gal(b1-4)GlcNAc(b1-3)Gal(b1-4)GlcNAc(b1-3)Gal(b1-4)GlcNAc(b1-3)Gal(b1-4)GlcNAc(b1-2)Man(a1-3)[Gal(b1-4)GlcNAc(b1-3)Gal(b1-4)GlcNAc(b1-3)Gal(b1-4)GlcNAc(b1-3)Gal(b1-4)GlcNAc(b1-3)Gal(b1-4)GlcNAc(b1-2)Man(a1-6)]Man(b1-4)GlcNAc(b1-4)[Fuc(a1-6)]GlcNAc
Method in brief: as §1

[7] = molecular target: Gal(b1-4)GlcNAc(b1-3)Gal(b1-4)GlcNAc(b1-3)Gal(b1-4)GlcNAc(b1-3)Gal(b1-4)GlcNAc(b1-3)Gal(b1-4)GlcNAc(b1-2)[Gal(b1-4)GlcNAc(b1-3)Gal(b1-4)GlcNAc(b1-3)Gal(b1-4)GlcNAc(b1-3)Gal(b1-4)GlcNAc(b1-3)Gal(b1-4)GlcNAc(b1-6)]Man(a1-6)[Gal(b1-4)GlcNAc(b1-3)Gal(b1-4)GlcNAc(b1-3)Gal(b1-4)GlcNAc(b1-3)Gal(b1-4)GlcNAc(b1-3)Gal(b1-4)GlcNAc(b1-2)Man(a1-3)]Man(b1-4)GlcNAc(b1-4)[Fuc(a1-6)]GlcNAc
Method in brief: as §1

[8] = molecular target: Gal(b1-4)GlcNAc(b1-3)Gal(b1-4)GlcNAc(b1-3)Gal(b1-4)GlcNAc(b1-3)Gal(b1-4)GlcNAc(b1-3)Gal(b1-4)GlcNAc(b1-3)Gal(b1-4)GlcNAc(b1-2)Man(a1-3)[Gal(b1-4)GlcNAc(b1-3)Gal(b1-4)GlcNAc(b1-3)Gal(b1-4)GlcNAc(b1-3)Gal(b1-4)GlcNAc(b1-3)Gal(b1-4)GlcNAc(b1-3)Gal(b1-4)GlcNAc(b1-2)Man(a1-6)]Man(b1-4)GlcNAc(b1-4)GlcNAc
Method in brief: as §1

[9] = molecular target: Gal(b1-4)GlcNAc(b1-3)Gal(b1-4)GlcNAc(b1-3)GalNAc
Method in brief: as §1

[10] = molecular target: Gal(b1-4)GlcNAc(b1-3)Gal(b1-4)GlcNAc(b1-3)[Gal(b1-4)GlcNAc(b1-3)Gal(b1-4)GlcNAc(b1-6)]GalNAc
Method in brief: as §1

[11] = molecular target: Gal(b1-4)GlcNAc(b1-3)Gal(b1-4)GlcNAc(b1-6)[Gal(b1-3)]GalNAc
Method in brief: as §1

[12] = molecular target: Gal(b1-4)GlcNAc(b1-3)Gal(b1-4)[Fuc(a1-3)GlcNAc(b1-6)]Gal(b1-4)Glc
Method in brief: as §1

[13] = molecular target: Gal(b1-4)GlcNAc(b1-3)Gal(b1-4)[Fuc(a1-3)]GlcNAc(b1-3)Gal(b1-4)[Fuc(a1-3)]GlcNAc
Method in brief: as §1

[14] = molecular target: Gal(b1-4)GlcNAc(b1-3)GalNAc
Method in brief: as §1

[15] = molecular target: Gal(b1-4)GlcNAc(b1-3)[Fuc(a1-3)GlcNAc(b1-6)]Gal(b1-4)Glc
Method in brief: as §1

[16] = molecular target: Gal(b1-4)GlcNAc(b1-3)[Gal(b1-4)GlcNAc(b1-6)]Gal(b1-4)GlcNAc
Method in brief: as §1

[17] = molecular target: Gal(b1-4)GlcNAc(b1-3)[Gal(b1-4)GlcNAc(b1-6)]GalNAc
Method in brief: as §1

[18] = molecular target: Gal(b1-4)GlcNAc(b1-3)[GlcNAc(b1-6)]Gal(b1-4)GlcNAc
Method in brief: as §1

[19] = molecular target: Gal(b1-4)GlcNAc(b1-6)Gal(b1-4)GlcNAc
Method in brief: as §1

[20] = molecular target: Gal(b1-4)GlcNAc(b1-6)GalNAc
Method in brief: as §1

[21] = molecular target: Gal(b1-4)GlcNAc(b1-6)[Gal(b1-3)]GalNAc
Method in brief: as §1

[22] = molecular target: Gal(b1-4)GlcNAc(b1-6)[Gal(b1-4)GlcNAc(b1-3)]GalNAc
Method in brief: as §1

Gal(b1-4)GlcNAc6P = molecular target: Gal(b1-4)GlcNAc6P
Method in brief: as §1

Gal(b1-6)Gal = molecular target: Gal(b1-6)Gal
Method in brief: as §1

Gal3S(b1-3)GalNAc = molecular target: Gal3S(b1-3)GalNAc
Method in brief: as §1

Gal3S(b1-3)GlcNAc = molecular target: Gal3S(b1-3)GlcNAc
Method in brief: as §1

[23] = molecular target: Gal3S(b1-3)[Fuc(a1-4)]GlcNAc
Method in brief: as §1

KISKRILTGKK [NK11 (Sus scrofa)]
glycan array binding signal (z-score) [1]: 1.62
glycan array binding signal (z-score) [2]: -0.35
glycan array binding signal (z-score) [3]: 1.5
glycan array binding signal (z-score) [4]: 1.05
glycan array binding signal (z-score) [5]: 1.31
glycan array binding signal (z-score) [6]: -0.483
glycan array binding signal (z-score) [7]: 0.416
glycan array binding signal (z-score) [8]: 2.32
glycan array binding signal (z-score) [9]: 2.91
glycan array binding signal (z-score) [10]: 3.55
glycan array binding signal (z-score) [11]: 1
glycan array binding signal (z-score) [12]: -0.277
glycan array binding signal (z-score) [13]: -0.368
glycan array binding signal (z-score) [14]: -0.313
glycan array binding signal (z-score) [15]: 0.984
glycan array binding signal (z-score) [16]: -0.152
glycan array binding signal (z-score) [17]: -0.392
glycan array binding signal (z-score) [18]: -0.631
glycan array binding signal (z-score) [19]: -0.621
glycan array binding signal (z-score) [20]: -0.343
glycan array binding signal (z-score) [21]: -0.27
glycan array binding signal (z-score) [22]: -0.609
glycan array binding signal (z-score) (Gal(b1-4)GlcNAc6P): 0.202
glycan array binding signal (z-score) (Gal(b1-6)Gal): -0.797
glycan array binding signal (z-score) (Gal3S(b1-3)GalNAc): 0.282
glycan array binding signal (z-score) (Gal3S(b1-3)GlcNAc): 0.54
glycan array binding signal (z-score) [23]: 0.528
